Where a chain is given by its changes, count along the chain named. In names and notes the source's numbering stands. Results are given in words; binding and its absence hold for the method and conditions named. A result given as binding can be weak or reduced; the word gives no strength.

Consider nine molecules from paper PMC6876773.

The target of this assay is SUMO (Smt3AAΔ, an allele that cannot be used as a moiety for SUMOylation) (budding yeast). The assay can be described thus: two-hybrid; Gal4-based, pGADT7 and pGBKT7 derivatives in strain PJ69-4A; growth on SC lacking Trp, Leu, His (weak) or Trp, Leu, His, Ade (strong selection); serial dilutions.

B1: Pol2 (1128–2222), C-terminal half (domain or fragment, UniProt P21951 1128-2222)
chain: LDPSLEDLDIRTIIDWGYYRERLGSAIQKIITIPAALQGVSNPVPRVEHPDWLKRKIATKEDKFKQTSLTKFFSKTKNVPTMGKIKDIEDLFEPTVEEDNAKIKIARTTKKKAVSKRKRNQLTNEEDPLVLPSEIPSMDEDYVGWLNYQKIKWKIQARDRKRRDQLFGNTNSSRERSALGSMIRKQAESYANSTWEVLQYKDSGEPGVLEVFVTINGKVQNITFHIPKTIYMKFKSQTMPLQKIKNCLIEKSSASLPNNPKTSNPAGGQLFKITLPESVFLEEKENCTSIFNDENVLGVFEGTITPHQRAIMDLGASVTFRSKAMGALGKGIQQGFEMKDLSMAENERYLSGFSMDIGYLLHFPTSIGYEFFSLFKSWGDTITILVLKPSNQAQEINASSLGQIYKQMFEKKKGKIETYSYLVDIKEDINFEFVYFTDISKLYRRLSQETTKLKEERGLQFLLLLQSPFITKLLGTIRLLNQMPIVKLSLNEVLLPQLNWQPTLLKKLVNHVLSSGSWISHLIKLSQYSNIPICNLRLDSMDYIIDVLYARKLKKENIVLWWNEKAPLPDHGGIQNDFDLNTSWIMNDSEFPKINNSGVYDNVVLDVGVDNLTVNTILTSALINDAEGSDLVNNNMGIDDKDAVINSPSEFVHDAFSNDALNVLRGMLKEWWDEALKENSTADLLVNSLASWVQNPNAKLFDGLLRYHVHNLTKKALLQLVNEFSALGSTIVYADRNQILIKTNKYSPENCYAYSQYMMKAVRTNPMFSYLDLNIKRYWDLLIWMDKFNFSGLACIEIEEKENQDYTAVSQWQLKKFLSPIYQPEFEDWMMIILDSMLKTKQSYLKLNSGTQRPTQIVNVKKQDKEDSVENSLNGFSHLFSKPLMKRVKKLFKNQQEFILDPQYEADYVIPVLPGSHLNVKNPLLELVKSLCHVMLLSKSTILEIRTLRKELLKIFELREFAKVAEFKDPSLSLVVPDFLCEYCFFISDIDFCKAAPESIFSCVRCHKAFNQVLLQEHLIQKLRSDIESYLIQDLRCSRCHKVKRDYMSAHCPCAGAWEGTLPRESIVQKLNVFKQVAKYYGFDILLSCIADLTI
For the molecule B1, the binding entry is “binds”.

B2: Pol2 N-terminal (1–1265) (domain or fragment, UniProt P21951 1-1265)
chain: MMFGKKKNNGGSSTARYSAGNKYNTLSNNYALSAQQLLNASKIDDIDSMMGFERYVPPQYNGRFDAKDIDQIPGRVGWLTNMHATLVSQETLSSGSNGGGNSNDGERVTTNQGISGVDFYFLDEEGGSFKSTVVYDPYFFIACNDESRVNDVEELVKKYLESCLKSLQIIRKEDLTMDNHLLGLQKTLIKLSFVNSNQLFEARKLLRPILQDNANNNVQRNIYNVAANGSEKVDAKHLIEDIREYDVPYHVRVSIDKDIRVGKWYKVTQQGFIEDTRKIAFADPVVMAFDIETTKPPLKFPDSAVDQIMMISYMIDGEGFLITNREIISEDIEDFEYTPKPEYPGFFTIFNENDEVALLQRFFEHIRDVRPTVISTFNGDFFDWPFIHNRSKIHGLDMFDEIGFAPDAEGEYKSSYCSHMDCFRWVKRDSYLPQGSQGLKAVTQSKLGYNPIELDPELMTPYAFEKPQHLSEYSVSDAVATYYLYMKYVHPFIFSLCTIIPLNPDETLRKGTGTLCEMLLMVQAYQHNILLPNKHTDPIERFYDGHLLESETYVGGHVESLEAGVFRSDLKNEFKIDPSAIDELLQELPEALKFSVEVENKSSVDKVTNFEEIKNQITQKLLELKENNIRNELPLIYHVDVASMYPNIMTTNRLQPDSIKAERDCASCDFNRPGKTCARKLKWAWRGEFFPSKMDEYNMIKRALQNETFPNKNKFSKKKVLTFDELSYADQVIHIKKRLTEYSRKVYHRVKVSEIVEREAIVCQRENPFYVDTVKSFRDRRYEFKGLAKTWKGNLSKIDPSDKHARDEAKKMIVLYDSLQLAHKVILNSFYGYVMRKGSRWYSMEMAGITCLTGATIIQMARALVERVGRPLELDTDGIWCILPKSFPETYFFTLENGKKLYLSYPCSMLNYRVHQKFTNHQYQELKDPLNYIYETHSENTIFFEVDGPYKAMILPSSKEEGKGIKKRYAVFNEDGSLAELKGFELKRRGELQLIKNFQSDIFKVFLEGDTLEGCYSAVASVCNRWLDVLDSHGLMLEDEDLVSLICENRSMSKTLKEYEGQKSTSITTARRLGDFLGEDMVKDKGLQCKYIISSKPFNAPVTERAIPVAIFSADIPIKRSFLRRWTLDPSLEDLDIRTIIDWGYYRERLGSAIQKIITIPAALQGVSNPVPRVEHPDWLKRKIATKEDKFKQTSLTKFFSKTKNVPTMGKIKDIEDLFEPTVEEDNAKIKIARTTKKKAVSKRKRNQLTNEEDPLVLPSEIPSM
With B2, the binding result is reported as “no binding”.

B3: Dpb2 (two-hybrid) (protein, UniProt P24482 1-689)
chain: MFGSGNVLPVKIQPPLLRPLAYRVLSRKYGLSIKSDGLSALAEFVGTNIGANWRQGPATIKFLEQFAAVWKQQERGLFIDQSGVKEVIQEMKEREKVEWSHEHPIQHEENILGRTDDDENNSDDEMPIAADSSLQNVSLSSPMRQPTERDEYKQPFKPESSKALDWRDYFKVINASQQQRFSYNPHKMQFIFVPNKKQNGLGGIAGFLPDIEDKVQMFLTRYYLTNDRVMRNENFQNSDMFNPLSSMVSLQNELSNTNRQQQSSSMSITPIKNLLGRDAQNFLLLGLLNKNFKGNWSLEDPSGSVEIDISQTIPTQGHYYVPGCMVLVEGIYYSVGNKFHVTSMTLPPGERREITLETIGNLDLLGIHGISNNNFIARLDKDLKIRLHLLEKELTDHKFVILGANLFLDDLKIMTALSKILQKLNDDPPTLLIWQGSFTSVPVFASMSSRNISSSTQFKNNFDALATLLSRFDNLTENTTMIFIPGPNDLWGSMVSLGASGTLPQDPIPSAFTKKINKVCKNVVWSSNPTRIAYLSQEIVIFRDDLSGRFKRHRLEFPFNESEDVYTENDNMMSKDTDIVPIDELVKEPDQLPQKVQETRKLVKTILDQGHLSPFLDSLRPISWDLDHTLTLCPIPSTMVLCDTTSAQFDLTYNGCKVINPGSFIHNRRARYMEYVPSSKKTIQEEIYI
With B3, the binding entry is listed as “no binding”.

B4: Wild type Pol2 fragment 2103–2222 (domain or fragment, UniProt P21951 2103-2222)
chain: VPDFLCEYCFFISDIDFCKAAPESIFSCVRCHKAFNQVLLQEHLIQKLRSDIESYLIQDLRCSRCHKVKRDYMSAHCPCAGAWEGTLPRESIVQKLNVFKQVAKYYGFDILLSCIADLTI
For the molecule B4, the binding result is listed as “binds”.

B5: Pol2 fragment 2103–2222 mutated for CysB (C2164S C2167S) (domain or fragment, UniProt P21951 2103-2222)
chain: B4 chain with C62S, C65S
With B5, the binding result is “binds”.

B6: Pol2 fragment 2103–2222 mutated for CysA (C2108S C2111S) (domain or fragment, UniProt P21951 2103-2222)
chain: B4 chain with C6S, C9S
In the case of B6, the binding result is listed as “binds”.

B7: Mrc1 (two-hybrid) (protein, UniProt P25588 1-1096)
chain: MDDALHALSSLTAKKRTTTYKKVAVPILDENDNTNGNGPNDIDNPPELTGNGFLFANATLNRVKNRLEGKKAPEQNHNNGKDRSENSLPTQLISNLYDGGEELEKSEVKDNSYSEKNVSSSFTQTQRIPVSIQQDKVFNVPIHSVNDGKPTQLIKEDGLVNETSQALKTPLTTGRPGATQRIDSSGATSQTQPIKSIEPQSQIITTSSNHSNALSPKIPIIPTELIGTSPLFQSIQNRGPDTQMDVPPQTAHDEDKTQAIGIPQATHQEQKTQIDTVAQTLQDEVPHTLKIREIQSELASEDSKREKARNVEYKKPQKPIPTKKFFSKESFLADFDDSSSNEDDDIKLENAHPKPVQNDDELHENKSVELNLTDETRINEKRVPLLSSYANNLKREIDSSKCITLDLDSDSDEYGDDDMDSIKLSKDESVLPISQLSKATILNLKARLSKQNQKLSQRPNKSKDPKVDHNVLLNTLRKASRKQILDHQKEVIETKGLKLEDMAKEKEIVENLLEQEILRNKRIRQKEKRREKLEENDFQLNAHDSGSDSGSESSGFALSGNEIADYESSGSENDNRRESDSEKEDDEIILKQKKSHHVKHIINESDSDTEVEAKPKEKADESLPKRIAINLGHYGDNIGEDTDKFQETNVLDTQNIEEVMAERNTIENEVKDDVYVNEEADEAIRRQLIDKEKLQLKQKEKEHEAKIKELKKRGVTNFFEMEAEESEDEWHGIGGADGEGSDDYDSDLEKMIDDYSKNNFNPHEIREMLAAENKEMDIKMINKILYDIKNGGFRNKRAKNSLELELSDDDEDDVLQQYRLKRRELMRKRRLEIGDDAKLVKNPKSSAFFESMVEDIIEYKNPFGAEEEYNLDITSTATDLDTQDNSINVGDNTGNNEQKPVDQKNKKVIISEDFVQKSLSFLKSNNYEDFETDKELSRIQHGNDEAIEDLYTLKQNSSIKSFTNSQTDSTTSKTVNTIIDLEKRPEDEDEVENGDTSLVGVFKHPSIIKSFASRTDINDKFKEGNKTVKILKSYKTVGSSKASITYMGKTRKLIAPKRKTEGSHRYHHDHHNKKMKMKTKTKSNKLFESGQDSFDN
Take B7: the binding result is recorded as “no binding”.

B8: Dpb3 (two-hybrid) (protein, UniProt P27344 1-201)
chain: MSNLVKEKAPVFPISKVKKIAKCDPEYVITSNVAISATAFAAELFVQNLVEESLVLAQLNSKGKTSLRLSLNSIEECVEKRDNFRFLEDAIKQLKKNSALDKKRELNMQPGRSDQEVVIEEPELHEDDGVEEEEEEDEVSEEEEPVHNEELLDDSKDQQNDKSTRSVASLLSRFQYKSALDVGEHSDSSDIEVDHTKSTDP
With B8, the binding entry is on record as “no binding”.

B9: Dpb4 (two-hybrid) (protein, UniProt Q04603 1-196)
chain: MPPKGWRKDAQGNYPTTSYIKEQENITIQDLLFPKSTIVNLAREVPQQSGKKLLINKDASLALQRGATVFVNHLLLFAREIAKSQDKKSCSVDDVLSALDHIGHSALKGPVRDKLDEYQAAVEQRKKEKLDSGEVDADGDIDMGEDKENVPVEKVKEHDEIEEQGDALQDVEESSEKKQKTESQDVETRVQNLEQT
Take B9: the binding result is reported as “no binding”.
